Measured values published in paper PMC10541201.
No constants are given. Whether binding was seen depends on the method and setting. Binding seen in cells or lysates may run through a third protein. Some binding calls cover weakened binding; strength is not graded here. Where a sequence is shown, tags or fusion partners need not be part of it.

Amino acid sequences for entries named in this document (tags omitted).
UniProt Q86TM6: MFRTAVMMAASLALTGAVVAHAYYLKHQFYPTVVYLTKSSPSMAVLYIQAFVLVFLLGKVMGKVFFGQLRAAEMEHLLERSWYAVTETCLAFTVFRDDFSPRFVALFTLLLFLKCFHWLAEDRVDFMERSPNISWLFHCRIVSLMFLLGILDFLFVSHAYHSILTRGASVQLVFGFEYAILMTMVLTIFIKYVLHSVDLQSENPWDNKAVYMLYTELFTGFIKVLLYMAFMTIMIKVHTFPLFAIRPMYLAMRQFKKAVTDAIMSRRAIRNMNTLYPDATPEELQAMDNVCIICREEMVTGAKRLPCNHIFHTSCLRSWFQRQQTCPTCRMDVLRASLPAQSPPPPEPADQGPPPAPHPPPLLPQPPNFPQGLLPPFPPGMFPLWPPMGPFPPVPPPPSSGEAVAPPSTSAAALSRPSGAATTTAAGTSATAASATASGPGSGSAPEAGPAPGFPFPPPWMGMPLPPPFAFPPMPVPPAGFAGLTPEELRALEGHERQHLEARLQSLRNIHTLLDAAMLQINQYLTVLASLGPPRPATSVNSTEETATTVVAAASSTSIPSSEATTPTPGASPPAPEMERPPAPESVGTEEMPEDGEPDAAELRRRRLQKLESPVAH

Target: T1, cystinosin(7Δ)-GFP (human) (UniProt O60931)
T1 sequence: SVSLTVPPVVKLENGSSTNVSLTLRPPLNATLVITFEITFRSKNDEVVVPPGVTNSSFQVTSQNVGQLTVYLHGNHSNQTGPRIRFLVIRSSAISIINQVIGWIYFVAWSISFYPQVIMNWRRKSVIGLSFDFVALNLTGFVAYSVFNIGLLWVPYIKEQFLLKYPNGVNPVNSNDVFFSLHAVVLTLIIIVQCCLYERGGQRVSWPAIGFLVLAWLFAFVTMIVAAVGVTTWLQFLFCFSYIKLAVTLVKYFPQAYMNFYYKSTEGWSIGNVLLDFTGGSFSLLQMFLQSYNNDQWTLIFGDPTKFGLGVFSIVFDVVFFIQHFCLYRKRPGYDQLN
Experiment: co-IP; cystinosin-GFP (7Δ or WT) immunoprecipitated from cells, precipitate blotted for HRD1; HRD1 level quantified relative to 7Δ (100%); 3 independent replicates; protocol of this IP not described

HRD1 (from UniProt Q86TM6 1-617) (enzyme)
binding: binds
